Test results reported in doi:10.1101/2020.10.02.311787 (bioRxiv, 2020).
Results are given in words; binding and its absence hold for the method and conditions named. Binding seen in cells or lysates may run through a third protein. Binding calls can cover weak binding; strength is not graded here.

Sequences of proteins named here, by UniProt entry; tags and fusion partners are left off.
UniProt O75365, whole entry: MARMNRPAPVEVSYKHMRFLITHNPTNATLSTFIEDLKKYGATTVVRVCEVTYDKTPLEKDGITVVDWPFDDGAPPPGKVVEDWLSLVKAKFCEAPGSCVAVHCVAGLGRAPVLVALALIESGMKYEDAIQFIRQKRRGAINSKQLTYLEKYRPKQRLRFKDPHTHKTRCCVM

Biological target: 3XFLAG-tagged PRL-3, recombinant (human) (UniProt O75365)
Assay: co-IP

## CNNM3 CBS domain fused to a hemagglutinin (HA) tag (from UniProt Q8NE01) (domain or fragment)
  binding: binds
